Assay results from patent publication US20150038419A1.
These are yes or no findings as the source states them, for the method shown. Some entries that bind do so weakly or less than the wild type. Sequences can lack the tags named with a protein.

Protein sequences, listed by entry. Tags and fused reporters are not part of them. Residues count along the entry.
UniProt Q15661, residues 31-275: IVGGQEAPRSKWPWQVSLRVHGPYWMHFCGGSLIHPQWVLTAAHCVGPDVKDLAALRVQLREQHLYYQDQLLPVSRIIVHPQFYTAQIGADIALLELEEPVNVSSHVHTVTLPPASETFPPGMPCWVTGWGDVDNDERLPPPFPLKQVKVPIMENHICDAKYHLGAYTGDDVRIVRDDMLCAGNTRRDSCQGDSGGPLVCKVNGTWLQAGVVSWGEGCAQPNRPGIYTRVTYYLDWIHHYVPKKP
UniProt P03952, residues 20-638: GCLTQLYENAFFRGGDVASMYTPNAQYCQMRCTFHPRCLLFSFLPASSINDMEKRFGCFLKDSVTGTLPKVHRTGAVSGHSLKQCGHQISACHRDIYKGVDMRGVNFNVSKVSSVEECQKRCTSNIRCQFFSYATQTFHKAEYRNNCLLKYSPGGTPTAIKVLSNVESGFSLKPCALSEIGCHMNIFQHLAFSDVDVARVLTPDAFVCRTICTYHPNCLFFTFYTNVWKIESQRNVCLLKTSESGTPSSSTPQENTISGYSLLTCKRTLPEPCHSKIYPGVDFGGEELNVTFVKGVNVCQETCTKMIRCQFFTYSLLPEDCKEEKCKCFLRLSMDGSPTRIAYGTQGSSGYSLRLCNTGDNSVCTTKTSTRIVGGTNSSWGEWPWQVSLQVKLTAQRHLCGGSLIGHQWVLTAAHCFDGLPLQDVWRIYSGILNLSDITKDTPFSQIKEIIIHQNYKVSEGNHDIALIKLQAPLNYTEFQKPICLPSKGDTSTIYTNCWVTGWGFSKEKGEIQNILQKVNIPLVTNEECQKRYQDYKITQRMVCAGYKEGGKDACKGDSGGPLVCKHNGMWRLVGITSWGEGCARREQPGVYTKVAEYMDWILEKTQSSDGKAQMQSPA

What was measured:
[1] = target: skin β-tryptase (human) (human) (UniProt Q15661); experiment: enzyme inhibition titration, fluorogenic peptide substrate 250 µM, 0.01 nM enzyme
[2] = target: kallikrein (human) (human) (UniProt P03952); experiment: enzyme inhibition titration, fluorogenic peptide substrate 250 µM, 0.08 nM enzyme
[3] = target: skin β-tryptase (human) (human) (UniProt Q15661); experiment: enzyme inhibition assay, fluorogenic peptide substrate, 500 nM rSimukunin, 0.01 nM enzyme
[4] = target: kallikrein (human) (human) (UniProt P03952); experiment: enzyme inhibition assay, fluorogenic peptide substrate, 500 nM rSimukunin, 0.08 nM enzyme

Measured: binding

B1: recombinant Simukunin (rSV-66), Simulium vittatum SV-66 without signal peptide, His-tagged, expressed in E. coli (protein, not shown: small tags and cut ends)
chain: QENVCNLPVDEGVCRALFKRFYYEPATDSCKEFYYGGCEGNGNRFKSKKECILKCQKNKQLIKTRKRKPKKTTKPPIPIISLD
binds: all assays above
